# Laboratory results as given in PubChem BioAssay AID1558 (National Center for Advancing Translational Sciences (NCATS), 2009).
# The chains behind the UniProt entries cited, without tags or fusion partners. Residues count along the entry.
# UniProt P10636, 561-689 P618L limits assumed: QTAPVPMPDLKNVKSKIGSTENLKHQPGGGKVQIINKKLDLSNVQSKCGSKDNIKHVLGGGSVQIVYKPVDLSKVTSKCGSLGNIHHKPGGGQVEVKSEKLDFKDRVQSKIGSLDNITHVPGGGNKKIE
# UniProt P10636, whole entry, looked up: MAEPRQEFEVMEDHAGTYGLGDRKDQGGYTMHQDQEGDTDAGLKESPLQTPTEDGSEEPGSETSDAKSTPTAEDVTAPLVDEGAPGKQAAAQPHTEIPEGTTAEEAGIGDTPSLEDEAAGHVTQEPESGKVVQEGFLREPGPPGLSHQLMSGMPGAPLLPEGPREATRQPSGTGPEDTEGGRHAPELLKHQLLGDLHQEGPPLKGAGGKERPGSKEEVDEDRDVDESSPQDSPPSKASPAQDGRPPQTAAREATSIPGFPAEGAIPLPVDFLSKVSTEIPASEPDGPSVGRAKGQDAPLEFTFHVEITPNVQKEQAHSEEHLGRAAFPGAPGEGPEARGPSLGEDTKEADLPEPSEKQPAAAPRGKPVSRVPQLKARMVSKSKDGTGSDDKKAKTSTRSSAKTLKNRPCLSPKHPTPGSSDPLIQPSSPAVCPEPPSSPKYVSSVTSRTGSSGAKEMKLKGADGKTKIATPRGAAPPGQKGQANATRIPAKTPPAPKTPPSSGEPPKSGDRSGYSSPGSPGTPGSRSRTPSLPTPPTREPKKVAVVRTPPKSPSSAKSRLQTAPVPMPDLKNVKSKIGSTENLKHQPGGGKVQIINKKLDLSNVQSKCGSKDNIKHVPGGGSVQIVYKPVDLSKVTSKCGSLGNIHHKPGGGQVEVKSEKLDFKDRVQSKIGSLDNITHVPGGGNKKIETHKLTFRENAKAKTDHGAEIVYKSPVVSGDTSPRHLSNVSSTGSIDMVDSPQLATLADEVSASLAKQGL
# Inconclusive results, whose numbers are uncertain, are shown with a selection of clear calls. Potencies of inconclusive entries are doubtful fits and often do not repeat. The source made the active and inactive calls. The call rests on the fitted dose curve; in most records, active means well fitted inhibition curve with a large enough effect; inconclusive means small, poorly fitted or top-dose-only effect; inactive means flat fitted curve, though single readings scatter.
# Molecular target: Microtubule-associated protein tau (Homo sapiens) (UniProt P10636)
# Assay: Confirmation Concentration-Response Assay for Inhibitors of Tau Fibril Formation, Thioflavin T Binding
# Details: recombinant tau K18 P301L heparin fibrillization, ThT fluorescence; series mostly up to 100 µM; activity change, negative = inhibition: at the top concentration
# In short: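 Heparin (20 uM final) induced fibrillization of human tau K18 P301L (15 uM unlabeled plus 0.24 uM Alexa 594-labeled, final) in 100 mM sodium acetate pH 7 with compound, 6 hr at 37 C. ThT (30 uM final) added, read after 1 hr (ex 450, em 510 nm).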
Compound,Potency,"activity change, negative = inhibition"
Nc1scc2c(C(=O)O)nn(-c3ccccc3)c(=O)c12,active: 6.31 µM,
COc1ccc2[nH]c(=O)c(CNc3cccc(C)c3)cc2c1,"inconclusive: 7.94 µM [inhibitor, full curve, poor fit]",
Cc1ccc(NC(=O)c2c(NC(=O)Cc3ccccc3)sc3c2CCCC3)cc1,,inactive: -10.5% [at 57.1 µM]
Cc1ccc(C2=NNC(=Nc3ccc(F)cc3)SC2)cc1,"inconclusive: 25.1 µM [inhibitor, full curve, poor fit]",
Nc1c(-c2ccncc2)cc[nH]c1=O,"inconclusive: 15.8 µM [inhibitor, partial curve, poor fit]",
Nc1cc(-c2ccncc2)c[nH]c1=O,active: 10 µM,
Cc1cccc(NC(=O)c2c(NC(=O)c3ccccc3)sc3c2CCCC3)c1,active: 7.94 µM,
COC(=O)c1c(NC(=O)C(C)(C)C)sc2c1C(C(=O)OC)CC2 (stereo not given),,inactive: -17.1%
CN(C(=S)Nc1cccnc1)c1ccc(O)cc1,active: 10 µM,
CCOC(=O)c1nn(-c2ccc(Cl)cc2)c(=O)c2c(N)scc12,active: 2.24 µM,
CCOC(=O)c1nn(-c2ccccc2)c(=O)c2c(N)sc(C)c12,"inconclusive: 12.6 µM [inhibitor, full curve]",
COc1cccc(CNc2cccc3cccnc23)c1O,"inconclusive: 28.2 µM [inhibitor, full curve, poor fit]",
NCCc1ccc(O)c(O)c1,,inactive: -25.5%
Cc1ccc(N(C)S(=O)(=O)c2nnc(NC(=O)C3CCCCC3)s2)cc1,,inactive: 0.45%
CCN(CC)S(=O)(=O)c1cccc(NC(=O)Nc2cccc(C(F)(F)F)c2)c1,"inconclusive: 35.5 µM [activator, partial curve]",

# Already shown: an excerpt of the list.
Compound,Potency,"activity change, negative = inhibition"
Cc1cccc(NC(=O)c2c(NC(=O)c3ccccc3)sc3c2CCCC3)c1,active: 7.94 µM,
COC(=O)c1c(NC(=O)C(C)(C)C)sc2c1C(C(=O)OC)CC2 (stereo not given),,inactive: -17.1%
CN(C(=S)Nc1cccnc1)c1ccc(O)cc1,active: 10 µM,
